These results are taken from doi:10.1101/2025.06.04.657936.

Holding throughout (experiment): pull-down
In assay [1] the target is T1, GST-BVRA (biliverdin reductase A, wild type) (human) (UniProt P53004).
T1 sequence: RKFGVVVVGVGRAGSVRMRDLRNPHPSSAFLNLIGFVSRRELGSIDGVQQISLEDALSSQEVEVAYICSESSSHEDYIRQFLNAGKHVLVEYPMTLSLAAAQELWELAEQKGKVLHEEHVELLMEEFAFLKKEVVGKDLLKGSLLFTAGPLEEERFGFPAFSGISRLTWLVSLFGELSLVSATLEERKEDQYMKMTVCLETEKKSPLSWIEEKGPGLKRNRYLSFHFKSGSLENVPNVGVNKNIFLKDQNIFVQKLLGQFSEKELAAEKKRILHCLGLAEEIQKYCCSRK

Assay [2] concerns the target T2, GST-BVRB (biliverdin reductase B) (human) (UniProt P30043).
T2 sequence: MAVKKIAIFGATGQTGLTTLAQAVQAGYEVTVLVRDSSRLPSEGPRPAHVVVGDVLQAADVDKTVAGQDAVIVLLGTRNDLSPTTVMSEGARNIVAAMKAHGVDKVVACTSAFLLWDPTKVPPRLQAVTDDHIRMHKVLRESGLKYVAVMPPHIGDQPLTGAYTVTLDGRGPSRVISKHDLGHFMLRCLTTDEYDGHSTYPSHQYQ

For a further assay, the target named is T3, GST-G17A-BVRA (human) (UniProt P53004).
T3 sequence: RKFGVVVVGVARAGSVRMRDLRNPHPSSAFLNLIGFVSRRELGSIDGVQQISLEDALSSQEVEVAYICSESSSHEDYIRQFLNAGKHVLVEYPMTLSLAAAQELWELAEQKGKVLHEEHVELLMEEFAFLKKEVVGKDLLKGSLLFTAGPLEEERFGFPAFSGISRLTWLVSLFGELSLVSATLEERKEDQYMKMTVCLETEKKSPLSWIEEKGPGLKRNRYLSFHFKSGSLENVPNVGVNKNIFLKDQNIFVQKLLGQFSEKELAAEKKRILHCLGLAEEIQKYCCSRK

Results are given in words; binding and its absence hold for the method and conditions named. In cells and extracts the contact can be indirect. Some results given as binding are weak or reduced against the parent protein; the word gives no strength. Sequences can lack the tags named with a protein.

B1: GFP-Nrf2 (nuclear factor erythroid-derived factor-like 2) (protein, UniProt Q16236 1-605)
chain: MMDLELPPPGLPSQQDMDLIDILWRQDIDLGVSREVFDFSQRRKEYELEKQKKLEKERQEQLQKEQEKAFFAQLQLDEETGEFLPIQPAQHIQSETSGSANYSQVAHIPKSDALYFDDCMQLLAQTFPFVDDNEVSSATFQSLVPDIPGHIESPVFIATNQAQSPETSVAQVAPVDLDGMQQDIEQVWEELLSIPELQCLNIENDKLVETTMVPSPEAKLTEVDNYHFYSSIPSMEKEVGNCSPHFLNAFEDSFSSILSTEDPNQLTVNSLNSDATVNTDFGDEFYSAFIAEPSISNSMPSPATLSHSLSELLNGPIDVSDLSLCKAFNQNHPESTAEFNDSDSGISLNTSPSVASPEHSVESSSYGDTLLGLSDSEVEELDSAPGSVKQNGPKTPVHSSGDMVQPLSPSQGQSTHVHDAQCENTPEKELPVSPGHRKTPFTKDKHSSRLEAHLTRDELRAKALHIPFPVEKIINLPVVDFNEMMSKEQFNEAQLALIRDIRRRGKNKVAAQNCRKRKLENIVELEQDLDHLKDEKEKLLKEKGENDKSLHLLKKQLSTLYLEVFSMLRDEDGKPYSPSEYSLQQTRDGNVFLVPKSKKPDVKKN
For the molecule B1, the figures for the binding entry (in assay [1]; in assay [2]; in the assay with GST-G17A-BVRA (human)) were “binds”, “no binding” and “binds”, respectively.
